At least one structure is not confirmed: it was looked up by name or label, or the drawing left a doubt.
Tested on: GM-CSF expression in Kras^G12D-PDEC
Experiment: GM-CSF mRNA expression in GFP-Kras^G12D-PDEC after pathway inhibitor treatment (quantitative RT-PCR)
Type: cell-based, mouse
Settings: 24 hour treatment; U0126 2 μM, LY294002 10 μM (FIG. 3B)
From the text: Data are presented as an average fold induction over values from GFP-WT-PDEC or normal pancreata. Error bars indicate SD (n=3). […] Error bars indicate SD (n=3). […] Data are presented as an average fold induction over values from normal pancreatic tissue. Error bars indicate SD (n=3). FIG. 3D are photomicrographs showing immunohistochemical staining for GM-CSF protein in representative samples of human pancreatic cancer containing PanIN lesions (i-normal duct from adjacent non-malignant tissue; ii-iii PanIN lesions; iv-invasive PDA). White arrowheads indicate pancreatic duct (i), PanIN (ii and iii), and PDA (iv). Scale bars=50 μm. Extraction and reverse transcription of total RNA from PDECs was performed using RNeasy mini kit (QIAGEN) and QuantiTect reverse transcription kit (QIAGEN), respectively. SYBR Green PCR Master Mix (USB) was used for amplification and the samples were run on the Stratagene Mx 3005P. Expression levels were normalized by GAPDH.

## O=c1cc(N2CCOCC2)oc2c(-c3ccccc3)cccc12 [LY294002]
  GM-CSF expression in Kras^G12D-PDEC: abrogation of GM-CSF expression

— US9901079B2, “Inhibition of oncogenic kras-induced GM-CSF production and function” (New York University, priority 2011, dated 2018)
